Experimental data taken from PMC6825199.
No constants are given. Whether binding was seen depends on the method and setting. Binding seen in cells or lysates may run through a third protein. Some results given as binding are weak or reduced against the parent protein; the word gives no strength. Sequences can lack the tags named with a protein.

By UniProt entry, the sequences of proteins in these tests, tags left out. Where a name states a change or a piece, a line headed by the entry shows the natural chain unless it says otherwise.
UniProt Q17551: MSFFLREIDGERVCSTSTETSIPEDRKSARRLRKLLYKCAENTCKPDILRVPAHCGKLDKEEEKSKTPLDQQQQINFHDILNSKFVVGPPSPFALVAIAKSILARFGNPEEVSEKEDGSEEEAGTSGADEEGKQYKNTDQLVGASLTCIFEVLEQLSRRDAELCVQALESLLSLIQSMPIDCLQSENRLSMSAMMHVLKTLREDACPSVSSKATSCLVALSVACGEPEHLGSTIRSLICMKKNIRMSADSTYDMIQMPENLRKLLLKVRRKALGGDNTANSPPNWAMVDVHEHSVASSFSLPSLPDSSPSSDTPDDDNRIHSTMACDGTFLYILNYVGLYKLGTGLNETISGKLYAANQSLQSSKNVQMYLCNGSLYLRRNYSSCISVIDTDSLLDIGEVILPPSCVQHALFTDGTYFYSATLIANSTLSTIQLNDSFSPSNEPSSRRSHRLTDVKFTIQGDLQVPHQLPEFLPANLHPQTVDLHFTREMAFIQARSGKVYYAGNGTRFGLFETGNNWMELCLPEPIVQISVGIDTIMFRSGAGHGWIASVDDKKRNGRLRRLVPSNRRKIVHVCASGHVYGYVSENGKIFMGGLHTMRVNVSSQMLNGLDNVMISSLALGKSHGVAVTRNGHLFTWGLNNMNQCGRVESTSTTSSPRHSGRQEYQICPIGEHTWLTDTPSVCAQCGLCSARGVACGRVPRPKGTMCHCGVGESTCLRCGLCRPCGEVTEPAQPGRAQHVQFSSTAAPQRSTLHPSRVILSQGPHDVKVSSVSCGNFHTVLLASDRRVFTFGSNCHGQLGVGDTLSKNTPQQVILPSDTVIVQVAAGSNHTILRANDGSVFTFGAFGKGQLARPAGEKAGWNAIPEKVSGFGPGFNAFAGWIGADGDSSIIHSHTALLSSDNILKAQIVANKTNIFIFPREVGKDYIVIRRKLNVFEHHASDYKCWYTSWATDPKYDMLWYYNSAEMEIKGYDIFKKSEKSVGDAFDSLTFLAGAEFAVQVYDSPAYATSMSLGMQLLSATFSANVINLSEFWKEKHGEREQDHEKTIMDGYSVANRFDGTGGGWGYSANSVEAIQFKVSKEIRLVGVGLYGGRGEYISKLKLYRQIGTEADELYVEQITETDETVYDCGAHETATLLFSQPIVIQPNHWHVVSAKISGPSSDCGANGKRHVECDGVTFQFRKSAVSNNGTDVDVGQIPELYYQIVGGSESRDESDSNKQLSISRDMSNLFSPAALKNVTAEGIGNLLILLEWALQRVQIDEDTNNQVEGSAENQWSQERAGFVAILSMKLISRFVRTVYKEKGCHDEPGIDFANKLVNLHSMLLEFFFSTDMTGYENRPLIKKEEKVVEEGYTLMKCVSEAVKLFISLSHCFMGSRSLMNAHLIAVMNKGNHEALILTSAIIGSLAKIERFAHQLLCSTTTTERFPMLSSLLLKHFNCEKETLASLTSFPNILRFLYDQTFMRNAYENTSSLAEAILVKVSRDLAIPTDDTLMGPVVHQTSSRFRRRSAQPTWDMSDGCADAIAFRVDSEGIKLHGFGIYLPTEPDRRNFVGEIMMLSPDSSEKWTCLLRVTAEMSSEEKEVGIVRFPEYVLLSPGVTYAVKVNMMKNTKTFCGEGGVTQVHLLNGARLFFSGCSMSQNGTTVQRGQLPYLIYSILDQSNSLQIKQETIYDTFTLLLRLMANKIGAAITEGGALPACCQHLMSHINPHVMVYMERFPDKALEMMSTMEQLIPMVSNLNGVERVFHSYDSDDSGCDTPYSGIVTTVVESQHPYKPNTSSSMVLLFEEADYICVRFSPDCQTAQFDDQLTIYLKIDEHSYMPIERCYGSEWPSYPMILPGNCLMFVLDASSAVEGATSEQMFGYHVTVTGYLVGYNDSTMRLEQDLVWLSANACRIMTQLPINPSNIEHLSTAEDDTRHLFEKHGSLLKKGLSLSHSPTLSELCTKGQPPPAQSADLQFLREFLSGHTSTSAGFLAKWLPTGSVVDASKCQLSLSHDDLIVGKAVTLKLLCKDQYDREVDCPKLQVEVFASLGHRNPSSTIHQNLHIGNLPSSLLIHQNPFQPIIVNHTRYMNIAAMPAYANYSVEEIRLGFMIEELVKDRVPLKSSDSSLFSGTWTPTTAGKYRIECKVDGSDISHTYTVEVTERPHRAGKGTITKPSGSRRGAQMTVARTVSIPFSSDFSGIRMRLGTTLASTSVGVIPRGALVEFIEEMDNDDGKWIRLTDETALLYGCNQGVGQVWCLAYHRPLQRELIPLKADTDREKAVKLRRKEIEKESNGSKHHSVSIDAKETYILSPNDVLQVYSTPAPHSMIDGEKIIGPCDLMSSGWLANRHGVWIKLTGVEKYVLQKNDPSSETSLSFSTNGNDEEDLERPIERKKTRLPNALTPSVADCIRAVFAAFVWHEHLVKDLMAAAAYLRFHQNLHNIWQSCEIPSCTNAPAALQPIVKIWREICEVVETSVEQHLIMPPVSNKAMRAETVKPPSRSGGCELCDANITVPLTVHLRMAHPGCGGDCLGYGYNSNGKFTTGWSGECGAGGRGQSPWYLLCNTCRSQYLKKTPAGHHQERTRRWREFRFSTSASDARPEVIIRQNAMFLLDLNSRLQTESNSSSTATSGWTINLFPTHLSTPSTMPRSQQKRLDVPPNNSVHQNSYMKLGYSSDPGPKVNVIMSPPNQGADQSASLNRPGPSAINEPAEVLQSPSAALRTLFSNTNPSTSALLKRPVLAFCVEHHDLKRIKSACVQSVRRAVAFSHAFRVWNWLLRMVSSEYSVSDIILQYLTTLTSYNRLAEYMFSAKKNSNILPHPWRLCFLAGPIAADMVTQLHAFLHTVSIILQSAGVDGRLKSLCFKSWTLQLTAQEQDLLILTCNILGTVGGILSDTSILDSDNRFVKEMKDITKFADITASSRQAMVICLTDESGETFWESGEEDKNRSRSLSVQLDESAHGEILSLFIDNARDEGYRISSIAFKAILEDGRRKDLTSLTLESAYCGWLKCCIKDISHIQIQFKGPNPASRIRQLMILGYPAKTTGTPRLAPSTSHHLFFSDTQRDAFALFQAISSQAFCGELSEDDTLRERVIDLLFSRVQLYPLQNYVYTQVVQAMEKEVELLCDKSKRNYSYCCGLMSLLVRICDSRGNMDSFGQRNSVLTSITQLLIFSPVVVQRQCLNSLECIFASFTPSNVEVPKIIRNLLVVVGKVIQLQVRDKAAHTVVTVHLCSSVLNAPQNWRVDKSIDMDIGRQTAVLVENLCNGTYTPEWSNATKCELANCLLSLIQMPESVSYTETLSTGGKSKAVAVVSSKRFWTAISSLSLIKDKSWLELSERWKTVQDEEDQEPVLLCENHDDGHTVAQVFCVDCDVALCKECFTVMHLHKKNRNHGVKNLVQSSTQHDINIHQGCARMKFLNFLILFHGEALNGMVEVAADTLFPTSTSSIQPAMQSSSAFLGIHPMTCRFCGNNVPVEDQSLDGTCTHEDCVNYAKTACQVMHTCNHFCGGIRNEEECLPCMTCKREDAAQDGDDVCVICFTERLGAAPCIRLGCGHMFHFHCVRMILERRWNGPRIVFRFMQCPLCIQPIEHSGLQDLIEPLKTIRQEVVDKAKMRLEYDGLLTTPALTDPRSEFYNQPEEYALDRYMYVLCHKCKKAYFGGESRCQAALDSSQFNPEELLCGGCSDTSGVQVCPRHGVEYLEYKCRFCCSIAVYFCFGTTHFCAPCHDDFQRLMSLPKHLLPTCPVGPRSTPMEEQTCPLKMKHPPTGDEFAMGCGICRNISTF

Biological target: T1, 3xFLAG::UNC-51 CRISPR (C. elegans) (UniProt Q23023)
T1 sequence: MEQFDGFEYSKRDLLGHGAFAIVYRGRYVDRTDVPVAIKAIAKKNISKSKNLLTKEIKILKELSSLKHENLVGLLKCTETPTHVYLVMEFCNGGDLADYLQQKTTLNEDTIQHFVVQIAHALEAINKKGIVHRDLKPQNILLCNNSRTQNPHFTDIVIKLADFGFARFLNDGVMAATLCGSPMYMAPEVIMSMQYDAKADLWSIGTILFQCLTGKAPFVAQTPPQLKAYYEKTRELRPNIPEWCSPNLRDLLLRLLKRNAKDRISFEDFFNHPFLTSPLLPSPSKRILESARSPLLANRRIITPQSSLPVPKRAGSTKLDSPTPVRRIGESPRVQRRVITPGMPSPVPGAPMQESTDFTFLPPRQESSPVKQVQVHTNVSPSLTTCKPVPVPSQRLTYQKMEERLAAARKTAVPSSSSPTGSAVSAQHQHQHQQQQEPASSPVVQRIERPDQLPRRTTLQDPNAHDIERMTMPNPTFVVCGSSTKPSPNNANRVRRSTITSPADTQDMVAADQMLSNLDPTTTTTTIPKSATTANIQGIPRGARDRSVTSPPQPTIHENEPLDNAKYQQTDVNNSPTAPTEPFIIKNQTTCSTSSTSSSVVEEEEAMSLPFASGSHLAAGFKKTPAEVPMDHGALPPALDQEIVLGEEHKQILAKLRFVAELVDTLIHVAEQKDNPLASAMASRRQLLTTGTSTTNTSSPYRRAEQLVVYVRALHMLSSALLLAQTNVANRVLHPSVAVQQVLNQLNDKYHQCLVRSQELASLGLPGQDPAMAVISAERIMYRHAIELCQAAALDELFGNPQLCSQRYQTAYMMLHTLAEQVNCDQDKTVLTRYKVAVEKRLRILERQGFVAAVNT
Assay: co-IP; whole-worm lysates of CRISPR strains (2.5 mg total protein), anti-FLAG (M2) or anti-GFP (3E6) antibody 30 min, then protein-G agarose 4 h at 4 °C; immunoblot with anti-FLAG or anti-GFP

RPM-1 LD::GFP CRISPR (from UniProt Q17551 1-3766) (enzyme)
binding: binds
